Laboratory results published in PMC7925690, “A molecular switch in sulfur metabolism to reduce arsenic and enrich selenium in rice grain” (Nature Communications, 2021).
These are yes or no findings as the source states them, for the method shown. In cells and extracts the contact can be indirect. Binding can be weak; no strength is given. Sequences can lack the tags named with a protein.

Target: T1, His-AtSAT5 (Arabidopsis thaliana) (UniProt Q42538)
T1 sequence: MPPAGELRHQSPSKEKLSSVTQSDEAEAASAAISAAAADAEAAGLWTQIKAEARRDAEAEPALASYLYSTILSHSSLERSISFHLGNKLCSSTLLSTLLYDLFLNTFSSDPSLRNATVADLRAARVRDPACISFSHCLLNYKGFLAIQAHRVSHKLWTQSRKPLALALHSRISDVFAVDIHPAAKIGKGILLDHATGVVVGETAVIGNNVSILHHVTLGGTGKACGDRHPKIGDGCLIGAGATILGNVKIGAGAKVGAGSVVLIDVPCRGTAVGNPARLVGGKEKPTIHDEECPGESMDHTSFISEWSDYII
Test: pull-down; His-AtSAT5 held on a NiCl2 HiTrap Chelating column, washed with Buffer W (50 mM Tris-HCl pH 8.0, 250 mM NaCl, 80 mM imidazol) and with 10 mM OAS; crude extract of untagged OAS-TL loaded; elution with Buffer W + 10 mM OAS, then 400 mM imidazol; SDS-PAGE, Coomassie; only the target …

“mature OsASTOL1^S189N protein (untagged) (rice (Oryza sativa cv. Kasalath)) (enzyme)” was tested, and the binding was “binds”.
